# Data taken from the supplement of paper PMC4635364.
# Counter-ions that a name gives are not always drawn. Some of the results follow. Single values are uncertain here, since repeats match poorly.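 Human fetal ventral-midbrain neural progenitor line ReNCell VM, differentiated without mitogens. Images stained for doublecortin (early neurons) or tyrosine hydroxylase (dopaminergic neurons) were scored by blinded raters against untreated wells (0 = no change). Repeats and both raters were averaged, and compounds averaging 2 or higher were picked as hits for retesting.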
# Experiments:
# ReNCell VM [1] = assay: neuronal differentiation score (DCX+ cell fraction vs untreated, manual image score) (score (-3 to 3)); higher = more neuronal differentiation; details: 2 uM, 2 weeks
# ReNCell VM [2] = assay: dopaminergic neuron differentiation score (TH+ cell fraction vs untreated, manual image score) (score (0 to 3)); higher = more TH+ dopaminergic neuron differentiation; details: 2 uM, 4 weeks, BDNF 10 ng/ml + GDNF 10 ng/ml
smiles,measurement,setting,value
CC[C@@H]1C(=O)OC[C@@H]1Cc1cncn1C [(+)-Pilocarpine hydrochloride],neuronal differentiation score,ReNCell VM [1]; library: LOPAC,inactive: 0
same,dopaminergic neuron differentiation score,ReNCell VM [2]; library: LOPAC,inactive: 0
O=C(O)c1cc2cc(Cl)ccc2[nH]1,neuronal differentiation score,ReNCell VM [1]; library: Spectrum,inactive: 0
same,dopaminergic neuron differentiation score,ReNCell VM [2]; library: Spectrum,inactive: 0
CCCN(CCC)S(=O)(=O)c1ccc(C(=O)O)cc1,neuronal differentiation score,ReNCell VM [1]; library: Spectrum,inactive: 0
same,dopaminergic neuron differentiation score,ReNCell VM [2]; library: Spectrum,inactive: 0
COc1ccc(NC(=O)c2ccc(-c3ccc(-c4noc(C)n4)cc3C)cc2)cc1OCCN(C)C,neuronal differentiation score,ReNCell VM [1]; library: Tocriscreen,inactive: 0
same,dopaminergic neuron differentiation score,ReNCell VM [2]; library: Tocriscreen,inactive: 0
CC(C)=CC1C(CO)C1(C)C (stereo unspecified),neuronal differentiation score,ReNCell VM [1]; library: Spectrum,inactive: 0
same,dopaminergic neuron differentiation score,ReNCell VM [2]; library: Spectrum,inactive: 0
Oc1ccc2ccccc2c1 [beta-NAPHTHOL],neuronal differentiation score,ReNCell VM [1]; library: Spectrum,inactive: 0
same,dopaminergic neuron differentiation score,ReNCell VM [2]; library: Spectrum,inactive: 0
CC(=O)OCC(=O)[C@@]1(O)CC[C@H]2[C@@H]3CCC4=CC(=O)CC[C@]4(C)[C@H]3[C@@H](O)C[C@@]21C [Cortisol acetate],neuronal differentiation score,ReNCell VM [1]; library: Prestwick,inactive: 0
same,dopaminergic neuron differentiation score,ReNCell VM [2]; library: Prestwick,inactive: 0
CN(C)CCC(c1ccc(Cl)cc1)c1ccccn1 (stereo unspecified) [Chlorpheniramine maleate],neuronal differentiation score,ReNCell VM [1]; library: Prestwick,inactive: 0
same,dopaminergic neuron differentiation score,ReNCell VM [2]; library: Prestwick,inactive: 0
O=[N+]([O-])c1cc(Cl)ccc1S(=O)(=O)N1CCN(Cc2ccccc2)CC1,neuronal differentiation score,ReNCell VM [1]; library: Tocriscreen,inactive: 0
same,dopaminergic neuron differentiation score,ReNCell VM [2]; library: Tocriscreen,inactive: 1
CC[C@]1(O)C[C@@H]2CN(CCc3c([nH]c4ccccc34)[C@@](C(=O)OC)(c3cc4c(cc3OC)N(C)[C@H]3[C@@](O)(C(=O)OC)[C@H](OC(C)=O)[C@]5(CC)C=CCN6CC[C@]43[C@@H]65)C2)C1 [Vinblastine sulfate],neuronal differentiation score,ReNCell VM [1]; library: Tocriscreen,inactive: 0
same,dopaminergic neuron differentiation score,ReNCell VM [2]; library: Tocriscreen,inactive: 0
OC[C@@H](O)[C@@H](O)[C@H](O)[C@H](O)CO,neuronal differentiation score,ReNCell VM [1]; library: Spectrum,inactive: 0
same,dopaminergic neuron differentiation score,ReNCell VM [2]; library: Spectrum,inactive: 0
COc1ccccc1NC(=O)Nc1nc(-c2cccnc2)nc2ccccc12,neuronal differentiation score,ReNCell VM [1]; library: LOPAC,inactive: 0
same,dopaminergic neuron differentiation score,ReNCell VM [2]; library: LOPAC,inactive: 0
CCOc1ccc2nc(S(N)(=O)=O)sc2c1,neuronal differentiation score,ReNCell VM [1]; library: Spectrum,inactive: 0
same,dopaminergic neuron differentiation score,ReNCell VM [2]; library: Spectrum,inactive: 0
CCCCC(CC)CN1CN(CC(CC)CCCC)CC(C)(N)C1 (stereo unspecified) [Hexetidine],neuronal differentiation score,ReNCell VM [1]; library: Prestwick,inactive: 0
same,dopaminergic neuron differentiation score,ReNCell VM [2]; library: Prestwick,inactive: 0
CCCCCCCCCCOc1cc2c(O)c(C(=O)OCC)cnc2cc1OCC,neuronal differentiation score,ReNCell VM [1]; library: Spectrum,inactive: 0
same,dopaminergic neuron differentiation score,ReNCell VM [2]; library: Spectrum,inactive: 0
C=C1c2cccc(O)c2C(=O)C2=C(O)[C@]3(O)C(=O)C(C(N)=O)=C(O)[C@@H](N(C)C)[C@@H]3[C@@H](O)[C@H]12,neuronal differentiation score,ReNCell VM [1]; library: Spectrum,inactive: 0
same,dopaminergic neuron differentiation score,ReNCell VM [2]; library: Spectrum,inactive: 0
Nc1ccc(N2C(=O)c3ccccc3C2=O)c(Cl)c1 [N-(4-Amino-2-chlorophenyl)phthalimide],neuronal differentiation score,ReNCell VM [1]; library: LOPAC,inactive: 0
same,dopaminergic neuron differentiation score,ReNCell VM [2]; library: LOPAC,inactive: 0
CO[C@H]1/C=C/O[C@@]2(C)Oc3c(C)c(O)c4c(O)c(c5c(nc6cc(C)ccn65)c4c3C2=O)NC(=O)/C(C)=C\C=C\[C@H](C)[C@H](O)[C@@H](C)[C@@H](O)[C@@H](C)[C@H](OC(C)=O)[C@@H]1C,neuronal differentiation score,ReNCell VM [1]; library: Spectrum,inactive: 0
same,dopaminergic neuron differentiation score,ReNCell VM [2]; library: Spectrum,inactive: 0
CC1(C)O[C@@H]2C[C@H]3[C@@H]4CCC5=CC(=O)C=C[C@]5(C)[C@@]4(F)[C@@H](O)C[C@]3(C)[C@]2(C(=O)CO)O1,neuronal differentiation score,ReNCell VM [1]; library: Spectrum,inactive: 0
same,dopaminergic neuron differentiation score,ReNCell VM [2]; library: Spectrum,inactive: 0
CN(C)CCOC(c1ccccc1)c1ccccc1,neuronal differentiation score,ReNCell VM [1]; library: Spectrum,inactive: 0
same,dopaminergic neuron differentiation score,ReNCell VM [2]; library: Spectrum,inactive: 0
C=C(NC(=O)C(=C)NC(=O)c1csc(C2=N[C@@H]3c4csc(n4)[C@H]4NC(=O)c5csc(n5)[C@H]([C@](C)(O)[C@@H](C)O)NC(=O)[C@H]5CSC(=N5)/C(=C/C)NC(=O)[C@H]([C@@H](C)O)NC(=O)c5csc(n5)[C@]3(CC2)NC(=O)[C@H](C)NC(=O)C(=C)NC(=O)[C@H](C)NC(=O)[C@H]([C@@H](C)CC)N[C@@H]2C=Cc3c([C@H](C)O)cc(nc3[C@H]2O)C(=O)O[C@@H]4C)n1)C(N)=O [Thiostrepton],neuronal differentiation score,ReNCell VM [1]; library: Prestwick,inactive: 0
same,dopaminergic neuron differentiation score,ReNCell VM [2]; library: Prestwick,inactive: 0
Cc1coc2c1C(=O)C(=O)c1c-2ccc2c1CCCC2(C)C [tanshinone IIA],neuronal differentiation score,ReNCell VM [1]; library: Natural,inactive: 0
same,dopaminergic neuron differentiation score,ReNCell VM [2]; library: Natural,inactive: 0
CCN(CC)C(=O)c1cccc(C)c1,neuronal differentiation score,ReNCell VM [1]; library: Spectrum,inactive: 0
same,dopaminergic neuron differentiation score,ReNCell VM [2]; library: Spectrum,inactive: 0
COc1ccc(C(=O)c2ccccc2O)c(O)c1 [Dioxybenzone],neuronal differentiation score,ReNCell VM [1]; library: Prestwick,inactive: 0
same,dopaminergic neuron differentiation score,ReNCell VM [2]; library: Prestwick,inactive: 0
NC(=O)NC1NC(=O)NC1=O (stereo unspecified),neuronal differentiation score,ReNCell VM [1]; library: Spectrum,inactive: 0
same,dopaminergic neuron differentiation score,ReNCell VM [2]; library: Spectrum,inactive: 0
CCCCC(C)(O)C/C=C/[C@H]1[C@H](O)CC(=O)[C@@H]1CCCCCCC(=O)OC (mixture of isomers) [Misoprostol],neuronal differentiation score,ReNCell VM [1]; library: Prestwick,inactive: 0
same,dopaminergic neuron differentiation score,ReNCell VM [2]; library: Prestwick,inactive: 0
COc1cc(NC(C)CCCN)c2ncccc2c1 (stereo unspecified) [Primaquine diphosphate],neuronal differentiation score,ReNCell VM [1]; library: Prestwick,inactive: 0
same,dopaminergic neuron differentiation score,ReNCell VM [2]; library: Prestwick,inactive: 0
COc1c(N2C[C@@H]3CCCN[C@@H]3C2)c(F)cc2c(=O)c(C(=O)O)cn(C3CC3)c12 [Moxifloxacin],neuronal differentiation score,ReNCell VM [1]; library: Prestwick,inactive: 0
same,dopaminergic neuron differentiation score,ReNCell VM [2]; library: Prestwick,inactive: 0
COc1cc2nc(N(C)CCCNC(=O)C3CCCO3)nc(N)c2cc1OC (stereo unspecified),neuronal differentiation score,ReNCell VM [1]; library: Spectrum,inactive: 0
same,dopaminergic neuron differentiation score,ReNCell VM [2]; library: Spectrum,inactive: 0
CCCCCCCCCC[Si](C)(C)CCC(=O)NC(Cc1ccc(C)cc1)c1ccccc1 (stereo unspecified) [Sandoz 58-035],neuronal differentiation score,ReNCell VM [1]; library: LOPAC,inactive: 0
same,dopaminergic neuron differentiation score,ReNCell VM [2]; library: LOPAC,inactive: 0
CN1CCN(CC(=O)N2c3ccccc3C(=O)Nc3cccnc32)CC1,neuronal differentiation score,ReNCell VM [1]; library: Spectrum,inactive: 0
same,dopaminergic neuron differentiation score,ReNCell VM [2]; library: Spectrum,inactive: 0
Cc1cc(C(C)(C)C)c(O)c(C)c1CC1=NCCN1,neuronal differentiation score,ReNCell VM [1]; library: Spectrum,inactive: 1
same,dopaminergic neuron differentiation score,ReNCell VM [2]; library: Spectrum,inactive: 0
COc1cc(/C=C/C(=O)CC(=O)/C=C/c2ccc(O)c(OC)c2)ccc1O [Curcumin],neuronal differentiation score,ReNCell VM [1]; library: Phytochemical,inactive: 0
same,dopaminergic neuron differentiation score,ReNCell VM [2]; library: Phytochemical,inactive: 0
